Laboratory results: patent US5416212A, “Anilide derivatives” (Taisho Pharmaceutical Co., Ltd., priority 1991, dated 1995)
At least one compound was matched to its structure with a doubt left.

Test system: Normal Rat
Assay: Test of Lipid Reduction in Normal Rat
Assay type: in vivo, rat (male Wister)
Conditions: conclusion from Table 3
Procedure: Test of Lipid Reduction in Normal Rat
Five 5-week-old male Wister rats per group were used as test animals. Each test drug was orally administered to the rat at a dose of 100 mg/kg for 3 days. A blood sample was taken from the rat having been deprive of food for 18 hours from the final administration, and the serum was separated. A total cholesterol value and a total triglyceride value were measured with an autoanalyzer (Hitachi 7150) in accordance with an enzyme method (Autosera, manufactured by Daiichi Kagaku K.K.). Lipoprotein was separated by a precipitation method (HDL-C.2, manufactured by Daiichi Kagaku K.K.), and the cholesterol in the lipoprotein was determined by an enzyme method. Five ml/kg of each test drug suspended in a 0.2% aqueous solution of sodium carboxymethyl cellulose was administered. For control, the same sodium carboxymethyl cellulose solution containing no test drug was administered.
Note: "Percent change" in Tables 2 and 3 is a rate of change in the respective cholesterol value compared with the control.

CC(C)c1cccc(C(C)C)c1NC(=O)CSCCCCCCN1CCN(c2ccccc2)CC1 [Compound 1, N-(2,6-Diisopropylphenyl)-2-[6-(4-phenylpiperazinyl)hexylthio]acetamide]
reduction of low density lipoprotein (in words): specifically reduces low density lipoprotein
